Measured data: PubChem BioAssay AID652243 (Drosophila RNAi Screening Center, 2013)

- Purpose: 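Fly regulators of androgen-dependent reporter output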 (primary screen)
- System: Drosophila S2R+ cells
- Knock-down reagent: long dsRNA against Drosophila genes
- Duration: 72 h (48 h, then 24 h hormone)
- Challenge: synthetic androgen R1881 at 10 nM for 24 h
- Read-out: 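Firefly light from an androgen-responsive reporter and Renilla control light per well, raw and unnormalised, for each of two replicates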
- Scale: firefly reporter light: higher = more light from androgen-responsive reporter; Renilla control light: higher = more constitutive control signal (cell number, transfection)
- Call rule: 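Across duplicate plates, a knock-down whose log firefly/Renilla ratio shifted a set fold down or up from the GFP/LacZ control mean was a hit; the downward cut appears as both 1.5 and 3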
- Meaning of the calls: active = hit: reporter lowered or raised; inactive = no hit
The screen tested about 24,000 reagents; this is an unselected part of those that have a named target and a result. Of all reagents, 246 (1%) got an active call. 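Plates not normalised; calls are printed but the firefly/Renilla ratio behind them is not deposited; fold cut for lowering reported inconsistently.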 Raw values vary from plate to plate and are shown uncorrected. Unmarked entries are inactive. Reagents against one gene are numbered here. Not stated in the record: the amount of reagent.

| firefly reporter light, replicate 1 | firefly reporter light, replicate 2 | Renilla control light, replicate 1 | Renilla control light, replicate 2 | Gene | dsRNA no. |
| --- | --- | --- | --- | --- | --- |
| 3.30e5 | 2.03e5 | 2.09e6 | 1.04e6 | CG17359 | 1 |
| 8.09e5 | 7.35e5 | 5.98e5 | 6.23e5 | CG17359 | 2 |
| 8.36e5 | 5.09e5 | 2.27e6 | 2.33e6 | CG3919 | 1 |
| 3.80e5 | 3.95e5 | 3.50e6 | 3.81e6 | OtopLa | 1 |
| 8.64e5 | 7.74e5 | 1.34e6 | 1.57e6 | OtopLa | 2 |
| 8.11e5 | 4.67e5 | 1.58e6 | 1.36e6 | OtopLa | 3 |
| 45150 | 68094 | 7.47e5 | 6.83e5 | CG13893 | 1 |
| 95095 | 99458 | 2.07e5 | 1.13e5 | shot | 1 |
| 3.02e5 | 3.28e5 | 4.82e5 | 5.81e5 | shot | 2 |
| 1.18e6 | 1.13e6 | 1.37e6 | 1.33e6 | shot | 3 |
| 3.61e5 | 2.00e5 | 7.80e5 | 4.51e5 | shot | 4 |

Laid out differently: 3 of the entries above.
firefly reporter light, replicate 1 | firefly reporter light, replicate 2 | Renilla control light, replicate 1 | Renilla control light, replicate 2 | Gene | dsRNA no.
3.30e5 | 2.03e5 | 2.09e6 | 1.04e6 | CG17359 | 1
8.09e5 | 7.35e5 | 5.98e5 | 6.23e5 | CG17359 | 2
8.36e5 | 5.09e5 | 2.27e6 | 2.33e6 | CG3919 | 1

Next entries follow.
| firefly reporter light, replicate 1 | firefly reporter light, replicate 2 | Renilla control light, replicate 1 | Renilla control light, replicate 2 | Gene | dsRNA no. |
| --- | --- | --- | --- | --- | --- |
| 2.50e5 | 2.49e5 | 1.95e6 | 1.39e6 | Or59b | 1 |
| 1.23e5 | 1.20e5 | 1.42e6 | 1.38e6 | Fbp1 | 1 |
| 2.58e5 | 3.20e5 | 2.49e5 | 4.47e5 | Fbp1 | 2 |
| 4.45e5 | 8.97e5 | 5.96e5 | 1.98e6 | dachs | 1 |
| 5.53e5 | 8.42e5 | 1.83e6 | 1.77e6 | dachs | 2 |
| 2.61e5 | 1.57e5 | 2.00e6 | 2.06e6 | dachs | 3 |
| 2.96e5 | 2.80e5 | 8.09e5 | 8.40e5 | dachs | 4 |
| 3.36e5 | 5.15e5 | 6.25e5 | 1.00e6 | dachs | 5 |
| 99363 | 1.45e5 | 6.95e5 | 8.06e5 | Hayan | 1 |
| 7.03e5 | 7.95e5 | 2.32e6 | 2.14e6 | Hayan | 2 |
| 2.47e5 | 3.87e5 | 5.64e5 | 6.80e5 | Hayan | 3 |
| 4.99e5 | 5.83e5 | 5.24e5 | 5.34e5 | Jheh1 | 1 |
| 7.40e5 | 7.78e5 | 7.71e5 | 8.05e5 | Jheh1 | 2 |
